Assay results taken from paper PMC8408929, “Influence of osmolality on gastrointestinal fluid volume and drug absorption: potential impact on oral salt supplementation” (Journal of Pharmaceutical Health Care and Sciences, 2021).

Tested on: rat intestine (jejunum, ileum and colon)
Test: in situ rat intestinal closed loop method
Conditions: 30 min
Procedure: The in situ rat intestinal closed loop method was carried out as described previously. Male Wistar rats (7–8 weeks old; 250 ± 20 g body weight) were fasted overnight and anesthetized by intraperitoneal injection of a triple anesthetic combination (medetomidine, midazolam and butorphanol). The abdominal cavity was opened and an intestinal loop (jejunum, 10 cm; ileum, 10 cm; colon, 7 cm) was made by cannulation into both ends of the jejunum, ileum and colon with silicone tubing (i.d., 3 mm). The intestinal contents were washed out through the cannulas with saline. […] One mL of test compound solution (10 μM) was introduced into the intestinal loop and both ends of the loop were ligated. At the designated times (30 min), test compound solution in the loop was collected by flushing with air (for measuring the luminal concentration of test compound, Cout), and then made up to 10 mL with buffer solution (for measuring the amount of test compound, Xout). The volume of luminal water (mL) in each segment of intestine was calculated using the following equation: 1 Vwater=Xout/Cout where Vwater (mL) is the water volume in each segment of intestine, Cout is the luminal concentration of test compound (μM), and Xout is the amount of test compound (μmol). The fraction absorbed of test compound was calculated from the remaining amount of test compound in each intestinal loop. Final results were normalized to the surface area calculated from the radius and length of each segment of intestine. The radii of the small and large intestines reported by Fagerholm et al. were used (0.178 cm and 0.252 cm, respectively).
Concentrations of FD-4 were measured with a microplate fluorescence reader (VarioskanTM Flash 2.4; Thermo Fisher Scientific Inc., Kanagawa, Japan) at excitation/emission wavelengths of 492/515 nm.
An Agilent Eclitse plus (C18, 50 × 2.1 mm, 5 μm) was used as the analytical column. […] Analyst software version 1.4.2 (AB SCIEX) was used for data manipulation.

fluorescein isothiocyanate-dextran 4000 [FD-4]
remaining fraction of water (colon, FD-4 (10 μM) in hyperosmotic solution (10% NaCl)): 146 ± 3% | remaining fraction of water (colon, FD-4 (10 μM) in purified water): 34.6 ± 3.7% | remaining fraction of water (ileum, FD-4 (10 μM) in hyperosmotic solution (10% NaCl)): 142 ± 15% | remaining fraction of water (ileum, FD-4 (10 μM) in purified water): 74.4 ± 3.8% | remaining fraction of water (jejunum, FD-4 (10 μM) in hyperosmotic solution (10% NaCl)): 181 ± 4% | remaining fraction of water (jejunum, FD-4 (10 μM) in purified water): 67.9 ± 2.0%
